In PMC5603512, “Discovery, Semisynthesis, Antiparasitic and Cytotoxic Evaluation of 14-Membered Resorcylic Acid Lactones and Their Derivatives” (Scientific Reports, 2017):

The compounds below were run on Trypanosoma cruzi (assay: Antitrypanosomal assay (beta-galactosidase reporter, intracellular amastigotes in Vero cells)). Conditions: Selectivity Index (CC50/IC50), CC50 on Vero cells.
Type: cell-based
Protocol: Briefly, the expression of the reporter gene for beta-galactosidase (β-Gal) in the Tulahuen clone C4 of T. cruzi is assessed by colorimetry at 570 nm, which correlates with the parasite growth. Assays were performed on the intracellular amastigote form of the parasite infecting African green monkey kidney (Vero) cells, incubated for 120 h at 37 °C with 5% CO2.

SMILES	Trypanosoma cruzi SI
COc1cc2c(c(OC(C)=O)c1)C(=O)O[C@@H](C)C/C=C/[C@@H]1OC(C)(C)O[C@H]1[C@@H](OC(C)=O)C/C=C/2 [Compound 11]	28
COc1cc2c(c(OC(=O)c3cccs3)c1)C(=O)O[C@@H](C)C/C=C/C(=O)[C@@H](OC(=O)c1cccs1)[C@@H](OC(=O)c1cccs1)C/C=C/2 [Compound 22]	2
COc1cc(O)c2c(c1)/C=C/C[C@H](OC(C)=O)[C@H](OC(C)=O)[C@@H](OC(C)=O)/C=C/C[C@H](C)OC2=O [Compound 12]	88
